Data as given in PubChem BioAssay AID1159579 (Peter MacCallum Cancer Centre, 2015)
Here is an unselected part of about 2,000 deposited reagents. 549 of them (27%) count as active. 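Some migration ratios are negative; siRNAs with too few cells are inactive whatever their migration ratio.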 The numbers tell different reagents against one gene apart. Reagent sequences are not shown. Not stated in the record: the time to read-out.

Test: 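Retest candidate lymphatic endothelial migration regulators using several independent siRNAs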 (follow-up of hits)
System: human dermal lymphatic endothelial cells
Reagents: single siRNA against human genes, 25 nM
Read-out: 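Scratch wound imaging measuring area filled by moving cells plus nuclei number, averaged over two wells and scaled to mock-transfected controls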
Direction: migration relative to mock: higher = more migration into the scratch; mean nuclei count: higher = more cells remaining
Call rule: 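Called active when the migration ratio is 0.6 or lower (impaired) or 1.3 or higher (accelerated), but inactive whenever the mean nuclei count falls under 3300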
Meaning of the calls: active = migration changed (impaired or accelerated); inactive = no migration change, or too few cells

gene | reagent no. | migration relative to mock | migration and cell number class | mean nuclei count | Call
CAMKK1 | 1 | 0.88 | no change in migration or cell number | 5854 | inactive
CAMKK1 | 2 | 0.85 | no change in migration or cell number | 6568 | inactive
CAMKK1 | 3 | 0.8 | no change in migration or cell number | 6204 | inactive
CAMKK1 | 4 | 0.88 | no change in migration or cell number | 6590 | inactive
AKR1C6P | 1 | 0.4 | migration reduced | 5536 | active
AKR1C6P | 2 | 1.07 | no change in migration or cell number | 5124 | inactive
AKR1C6P | 3 | 0.41 | migration reduced | 4031 | active
AKR1C6P | 4 | 1.04 | no change in migration or cell number | 4997 | inactive
EGR1 | 1 | 0.88 | no change in migration or cell number | 6028 | inactive
EGR1 | 2 | 1.12 | no change in migration or cell number | 6324 | inactive
EGR1 | 3 | 0.28 | migration reduced | 4212 | active
EGR1 | 4 | 0.9 | no change in migration or cell number | 5494 | inactive
LRRC57 | 1 | 0.43 | migration reduced | 5106 | active
LRRC57 | 2 | 0.05 | migration reduced | 4159 | active
LRRC57 | 3 | 0.66 | no change in migration or cell number | 4773 | inactive
LRRC57 | 4 | 0.53 | migration reduced | 4319 | active
DIO1 | 1 | 0.28 | migration reduced | 3806 | active
DIO1 | 2 | 0.96 | no change in migration or cell number | 5830 | inactive
DIO1 | 3 | 1.03 | no change in migration or cell number | 4801 | inactive
DIO1 | 4 | 0.24 | too few cells; migration not scored | 3024 | inactive
PTH2 | 1 | 0.36 | migration reduced | 5004 | active
PTH2 | 2 | 0.57 | migration reduced | 4780 | active
PTH2 | 3 | 0.74 | no change in migration or cell number | 4540 | inactive
PTH2 | 4 | 0.46 | migration reduced | 5472 | active
ODAPH | 1 | 0.62 | no change in migration or cell number | 5684 | inactive
ODAPH | 2 | 0.54 | migration reduced | 4034 | active
ODAPH | 3 | 0.9 | no change in migration or cell number | 6410 | inactive
ODAPH | 4 | 0.86 | no change in migration or cell number | 4687 | inactive
COL11A1 | 1 | 0.94 | no change in migration or cell number | 5775 | inactive
COL11A1 | 2 | 0.67 | no change in migration or cell number | 4996 | inactive
COL11A1 | 3 | 0.88 | no change in migration or cell number | 5738 | inactive
COL11A1 | 4 | 1.08 | no change in migration or cell number | 5067 | inactive
CRABP2 | 1 | 0.96 | no change in migration or cell number | 7082 | inactive
CRABP2 | 2 | 0.62 | no change in migration or cell number | 5760 | inactive
CRABP2 | 3 | 0.47 | migration reduced | 4798 | active
CRABP2 | 4 | 0.25 | migration reduced | 5249 | active
NUCLEOLIN | 1 | 0.86 | no change in migration or cell number | 7322 | inactive
NUCLEOLIN | 2 | 1.13 | no change in migration or cell number | 7110 | inactive
NUCLEOLIN | 3 | 0.98 | no change in migration or cell number | 5938 | inactive
NUCLEOLIN | 4 | 1.1 | no change in migration or cell number | 5197 | inactive
ZNF683 | 1 | 0.94 | no change in migration or cell number | 5468 | inactive
ZNF683 | 2 | 0.64 | no change in migration or cell number | 4467 | inactive
ZNF683 | 3 | 0.74 | no change in migration or cell number | 5300 | inactive
ZNF683 | 4 | 0.76 | no change in migration or cell number | 5392 | inactive
CEPT1 | 1 | 0.97 | no change in migration or cell number | 4866 | inactive
CEPT1 | 2 | 0.38 | migration reduced | 4777 | active
CEPT1 | 3 | 0.98 | no change in migration or cell number | 5054 | inactive
CEPT1 | 4 | -0.4 | migration reduced | 3886 | active

Sorted by “migration relative to mock” (ascending): some entries from above
gene | reagent no. | migration relative to mock | migration and cell number class | mean nuclei count | Call
LRRC57 | 2 | 0.05 | migration reduced | 4159 | active
DIO1 | 1 | 0.28 | migration reduced | 3806 | active
LRRC57 | 1 | 0.43 | migration reduced | 5106 | active
LRRC57 | 4 | 0.53 | migration reduced | 4319 | active
LRRC57 | 3 | 0.66 | no change in migration or cell number | 4773 | inactive
EGR1 | 4 | 0.9 | no change in migration or cell number | 5494 | inactive
DIO1 | 2 | 0.96 | no change in migration or cell number | 5830 | inactive
